PMC12216326
No constants are given. Whether binding was seen depends on the method and setting. Some entries that bind do so weakly or less than the wild type.

Chains of the proteins cited; added tags and fusions are not shown. Lines headed by an entry give the natural chain unless they say otherwise; changes in a name come on top. Residues count along the entry.
UniProt Q96PV6, residues 549-800: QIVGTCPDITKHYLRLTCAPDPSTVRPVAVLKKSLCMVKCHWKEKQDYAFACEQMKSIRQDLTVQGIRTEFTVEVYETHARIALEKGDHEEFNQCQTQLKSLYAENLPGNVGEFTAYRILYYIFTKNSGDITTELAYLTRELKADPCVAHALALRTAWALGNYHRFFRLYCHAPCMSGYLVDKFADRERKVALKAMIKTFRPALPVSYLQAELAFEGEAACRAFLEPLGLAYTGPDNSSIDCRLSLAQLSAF
UniProt Q96FV9: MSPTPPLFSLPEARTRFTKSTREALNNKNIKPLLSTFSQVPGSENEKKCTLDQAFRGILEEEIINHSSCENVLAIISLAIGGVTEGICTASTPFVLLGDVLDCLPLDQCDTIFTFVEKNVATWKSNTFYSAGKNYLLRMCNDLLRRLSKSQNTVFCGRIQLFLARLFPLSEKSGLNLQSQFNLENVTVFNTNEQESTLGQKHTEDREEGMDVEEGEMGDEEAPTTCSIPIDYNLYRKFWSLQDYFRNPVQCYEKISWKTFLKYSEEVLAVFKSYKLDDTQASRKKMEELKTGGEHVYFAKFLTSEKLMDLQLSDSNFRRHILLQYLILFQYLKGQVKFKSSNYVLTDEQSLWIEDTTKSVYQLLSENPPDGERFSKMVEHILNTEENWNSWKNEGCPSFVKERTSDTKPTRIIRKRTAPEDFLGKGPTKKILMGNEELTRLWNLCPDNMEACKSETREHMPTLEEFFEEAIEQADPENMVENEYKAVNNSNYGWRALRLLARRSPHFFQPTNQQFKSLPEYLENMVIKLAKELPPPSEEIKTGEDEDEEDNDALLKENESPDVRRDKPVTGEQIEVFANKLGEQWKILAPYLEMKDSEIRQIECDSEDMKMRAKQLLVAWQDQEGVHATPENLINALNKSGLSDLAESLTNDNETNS
UniProt P03466: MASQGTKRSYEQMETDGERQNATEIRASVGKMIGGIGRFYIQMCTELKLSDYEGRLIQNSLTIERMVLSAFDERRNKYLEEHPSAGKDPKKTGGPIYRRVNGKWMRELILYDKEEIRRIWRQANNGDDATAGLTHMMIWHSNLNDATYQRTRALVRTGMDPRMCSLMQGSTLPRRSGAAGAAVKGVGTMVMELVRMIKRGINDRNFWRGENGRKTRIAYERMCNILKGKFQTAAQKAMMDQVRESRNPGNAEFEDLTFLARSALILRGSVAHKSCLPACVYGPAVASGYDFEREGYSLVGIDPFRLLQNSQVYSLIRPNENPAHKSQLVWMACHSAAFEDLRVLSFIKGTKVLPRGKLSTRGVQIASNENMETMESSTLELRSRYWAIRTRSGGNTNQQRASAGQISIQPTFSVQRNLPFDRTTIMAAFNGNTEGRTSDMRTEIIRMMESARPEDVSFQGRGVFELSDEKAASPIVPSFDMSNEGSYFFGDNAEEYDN

Tests used:
[1] = target: GST-LENG8 (residues 549-800) (human) (UniProt Q96PV6)
[2] = target: GST-DDX39B (residues 1-428) (human) (UniProt Q13838)

## human THO complex (from UniProt Q96FV9 1-657; Q8NI27 1-1180; Q96J01 1-351; Q13769 12-230; Q6I9Y2 1-204)
[1]
  binding: no binding (tested: 1 µM of GST-LENG8)

## Recombinant influenza virus A/PR/8/34 NP protein (from UniProt P03466 1-498)
[2]
  binding: binds
